Test results reported in publication doi:10.1101/2022.04.18.488656.

Legend:
HNRNPH2 [1] = target: T1, HNRNPH2 (UniProt P55795); experiment: FRET; settings: 25 mM KCl, no change to 100 nM
T1 sequence (looked up, limits assumed): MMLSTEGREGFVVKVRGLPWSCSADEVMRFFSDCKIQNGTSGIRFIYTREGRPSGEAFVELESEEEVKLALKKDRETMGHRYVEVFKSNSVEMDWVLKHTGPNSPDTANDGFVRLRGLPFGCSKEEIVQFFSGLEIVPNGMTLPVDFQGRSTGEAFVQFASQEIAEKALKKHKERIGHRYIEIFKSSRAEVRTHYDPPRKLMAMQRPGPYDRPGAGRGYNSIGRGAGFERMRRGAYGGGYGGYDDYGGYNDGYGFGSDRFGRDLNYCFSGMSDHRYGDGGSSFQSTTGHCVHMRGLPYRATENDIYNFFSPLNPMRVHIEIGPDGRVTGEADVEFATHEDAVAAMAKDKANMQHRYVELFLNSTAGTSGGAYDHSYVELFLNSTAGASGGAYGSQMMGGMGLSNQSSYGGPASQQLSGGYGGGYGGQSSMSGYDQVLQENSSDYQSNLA

HNRNPH1 qRRM2-3 = target: T2, HNRNPH1 qRRM2-3 (UniProt P31943); experiment: BLI; settings: 150 mM KCl, value-to-RNA assignment from figure label order
T2 sequence (looked up, limits assumed): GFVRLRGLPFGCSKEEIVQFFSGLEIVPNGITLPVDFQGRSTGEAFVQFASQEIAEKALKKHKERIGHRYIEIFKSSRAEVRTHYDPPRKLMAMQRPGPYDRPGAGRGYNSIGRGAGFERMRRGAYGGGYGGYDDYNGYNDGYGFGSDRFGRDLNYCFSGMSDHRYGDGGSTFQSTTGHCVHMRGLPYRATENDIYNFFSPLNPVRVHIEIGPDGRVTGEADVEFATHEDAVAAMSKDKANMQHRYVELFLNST

HNRNPH2 [2] = target: T1, HNRNPH2; experiment: BLI; settings: minimal binding (text also says no binding)
HNRNPH1 endogenous = target: T3, HNRNPH1 endogenous (UniProt P31943); experiment: pull-down; settings: TC-32 whole-cell lysate; protein in an extract
T3 sequence (looked up, limits assumed): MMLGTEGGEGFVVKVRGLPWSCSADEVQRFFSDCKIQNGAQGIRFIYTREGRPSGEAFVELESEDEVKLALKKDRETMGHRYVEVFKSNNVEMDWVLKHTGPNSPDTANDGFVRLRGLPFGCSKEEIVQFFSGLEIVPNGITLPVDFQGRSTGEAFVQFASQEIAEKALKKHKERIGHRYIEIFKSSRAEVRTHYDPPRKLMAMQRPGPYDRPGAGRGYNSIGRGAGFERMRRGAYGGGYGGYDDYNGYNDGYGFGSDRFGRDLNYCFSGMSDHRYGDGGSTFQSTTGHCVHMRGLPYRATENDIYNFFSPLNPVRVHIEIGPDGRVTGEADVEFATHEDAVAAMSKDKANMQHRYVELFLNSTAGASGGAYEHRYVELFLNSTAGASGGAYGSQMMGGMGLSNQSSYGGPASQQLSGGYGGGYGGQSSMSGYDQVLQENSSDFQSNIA

| Sequence | binding result (HNRNPH2 [1]) | Kd (HNRNPH1 qRRM2-3) | binding result (HNRNPH2 [2]) | binding result (HNRNPH1 endogenous) |
| --- | --- | --- | --- | --- |
| GGGCGGGGAGGAGGACGCGGUGGAAUGGG [rG3-FRET] | no binding |  |  |  |
| ACCGGGGCAGGGGAAGAGGGGGAUU [rG1] |  | 24.3 nM | binds more weakly | binds |
| ACCGGGGCAGGGGAAGAGGGGGAUU [rG1-FRET] | no binding |  |  |  |
| GGGCGGGGAGGAGGACGCGGUGGAAUGGG [rG3] |  | 28.1 nM | binds more weakly | binds |

The exact form of at least one protein or probe is not confirmed. For some assays here: No signal at the amounts used counts as a negative. Tags and fusion partners may be left off the protein sequences shown. For some assays here: A weaker result is weaker than the reference pair of the same experiment. For some assays here: Results from cells or extracts need not show a direct contact.
